Reference: patent US20240285634A1, “COMPOUND AND METHOD FOR TREATING CHEMOTHERAPY-ASSOCIATED GASTROINTESTINAL SIDE EFFECTS” (ONQUALITY PHARMACEUTICALS CHINA LTD., priority 2021, published 2024)
The source gives many values for each of these; only a part stands here.

Test system: Chemotherapeutic agent-caused constipation models of Balb/c mice
Assay: Relieving effect on constipation caused by a chemotherapeutic agent (Examples 202-364)
Format: in vivo
Excerpt: Construction of mouse animal models: Chemotherapeutic agent-caused constipation models of Balb/c mice were constructed according to the administration mode and frequency of the chemotherapeutic agent as shown in Table 4. […] Thus, chemotherapeutic agent-caused constipation models of mice are very good models to mimic constipation caused by the chemotherapeutic agent.
Balb/c mice were fed for 1 week, and then divided into groups. The experiment was divided into a control group, a chemotherapeutic agent group, and a group of the compound as shown in Formula I, each of which comprised 10 mice, to perform the administration experiment, for which the administration dosage, mode, time and frequency were shown in Table 4. The control group: being injected or intragastrically administered with the same solvent as that used in the group of the compound as shown in Formula I (the administration mode and time were shown in Table 4), and then being injected or intragastrically administered with the same solvent as that used in the chemotherapeutic agent group (the administration mode was shown in Table 4); the chemotherapeutic agent group: being injected or intragastrically administered with the same solvent as that used in the group of the compound as shown in Formula I (the administration mode and time was shown in Table 4), and then being injected or intragastrically administered with the chemotherapeutic agent (the type, administration mode and dosage were shown in Table 4); the group of the compound as shown in Formula I: being injected or intragastrically administered with the compound as shown in Formula I (the administration mode and time was shown in Table 4), and then being administered with the chemotherapeutic agent (the administration mode and dosage were shown in Table 4).
The feces reduction rate was calculated with reference to the method of Ji Eun Kim (Lab Anim Res. 2016 December; 32(4): 231-240.). Feces reduction rate (%)=(the control group−the chemotherapeutic agent group or the group of the compound as shown in Formula I)/the control group*100%
It is regarded as effective remission when the feces reduction rate of mice in the group of the compound as shown in Formula I is reduced compared with that in the chemotherapeutic agent group.
The feces amount of mice within 3 hours was observed and recorded every day. At the end of the experiment, the number of mice in the group of the compound as shown in Formula I whose feces reduction rate was lower than that of mice in the chemotherapeutic agent group was recorded. Table 4 lists various animal experiment combinations of chemotherapeutic agents and the compound as shown in Formula I, as well as the corresponding experimental results.

CN1CCN(c2ccc(Nc3ncc4cc5n(c4n3)C3(CCCCC3)CNC5=O)nc2)CC1 [Compound I, Trilaciclib]
Relative remission rate (%) (Example 241, Fluorouracil (5-Fu) intravenous injection 250 mg/kg single, compound intraperitoneal injection 100 mg/kg single, 48 h before chemotherapeutic agent, cycle 10 days): 0% | Relative remission rate (%) (Example 249, Fluorouracil (5-Fu) oral administration 300 mg/kg single, compound intramuscular injection 100 mg/kg single, 0.5 h before chemotherapeutic agent, cycle 7 days): 60% | Relative remission rate (%) (Example 250, Fluorouracil (5-Fu) intramuscular injection 175 mg/kg single, compound oral administration 150 mg/kg single, 8 h before chemotherapeutic agent, cycle 7 days): 50% | Relative remission rate (%) (Example 251, Oxaliplatin intraperitoneal injection 25 mg/kg single, compound intraperitoneal injection 100 mg/kg single, 0.5 h before chemotherapeutic agent, cycle 10 days): 20% | Relative remission rate (%) (Example 252, Oxaliplatin intraperitoneal injection 25 mg/kg single, compound intraperitoneal injection 100 mg/kg single, 1 h before chemotherapeutic agent, cycle 10 days): 20% | Relative remission rate (%) (Example 253, Oxaliplatin intraperitoneal injection 25 mg/kg single, compound intraperitoneal injection 100 mg/kg single, 2 h before chemotherapeutic agent, cycle 10 days): 40% | Relative remission rate (%) (Example 254, Oxaliplatin intraperitoneal injection 25 mg/kg single, compound intraperitoneal injection 100 mg/kg single, 3 h before chemotherapeutic agent, cycle 10 days): 40% | Relative remission rate (%) (Example 255, Oxaliplatin intraperitoneal injection 25 mg/kg single, compound intraperitoneal injection 100 mg/kg single, 4 h before chemotherapeutic agent, cycle 10 days): 50% | Relative remission rate (%) (Example 256, Oxaliplatin intraperitoneal injection 25 mg/kg single, compound intraperitoneal injection 100 mg/kg single, 5 h before chemotherapeutic agent, cycle 10 days): 50% | Relative remission rate (%) (Example 257, Oxaliplatin intraperitoneal injection 25 mg/kg single, compound intraperitoneal injection 100 mg/kg single, 6 h before chemotherapeutic agent, cycle 10 days): 60% | Relative remission rate (%) (Example 258, Oxaliplatin intraperitoneal injection 25 mg/kg single, compound intraperitoneal injection 100 mg/kg single, 7 h before chemotherapeutic agent, cycle 10 days): 60% | Relative remission rate (%) (Example 259, Oxaliplatin intraperitoneal injection 25 mg/kg single, compound intraperitoneal injection 100 mg/kg single, 8 h before chemotherapeutic agent, cycle 10 days): 30% | Relative remission rate (%) (Example 260, Oxaliplatin intraperitoneal injection 25 mg/kg single, compound intraperitoneal injection 100 mg/kg single, 9 h before chemotherapeutic agent, cycle 10 days): 40% | Relative remission rate (%) (Example 261, Oxaliplatin intraperitoneal injection 25 mg/kg single, compound intraperitoneal injection 100 mg/kg single, 10 h before chemotherapeutic agent, cycle 10 days): 40% | Relative remission rate (%) (Example 262, Oxaliplatin intraperitoneal injection 25 mg/kg single, compound intraperitoneal injection 100 mg/kg single, 11 h before chemotherapeutic agent, cycle 10 days): 50% | Relative remission rate (%) (Example 263, Oxaliplatin intraperitoneal injection 25 mg/kg single, compound intraperitoneal injection 100 mg/kg single, 12 h before chemotherapeutic agent, cycle 10 days): 50% | Relative remission rate (%) (Example 264, Oxaliplatin intraperitoneal injection 25 mg/kg single, compound intraperitoneal injection 100 mg/kg single, 14 h before chemotherapeutic agent, cycle 10 days): 30% | Relative remission rate (%) (Example 265, Oxaliplatin intraperitoneal injection 25 mg/kg single, compound intraperitoneal injection 100 mg/kg single, 16 h before chemotherapeutic agent, cycle 10 days): 40% | Relative remission rate (%) (Example 266, Oxaliplatin intraperitoneal injection 25 mg/kg single, compound intraperitoneal injection 100 mg/kg single, 18 h before chemotherapeutic agent, cycle 10 days): 60% | Relative remission rate (%) (Example 267, Oxaliplatin intraperitoneal injection 25 mg/kg single, compound intraperitoneal injection 100 mg/kg single, 20 h before chemotherapeutic agent, cycle 10 days): 30% | Relative remission rate (%) (Example 268, Oxaliplatin intraperitoneal injection 25 mg/kg single, compound intraperitoneal injection 100 mg/kg single, 22 h before chemotherapeutic agent, cycle 10 days): 30% | Relative remission rate (%) (Example 269, Oxaliplatin intraperitoneal injection 25 mg/kg single, compound intraperitoneal injection 100 mg/kg single, 24 h before chemotherapeutic agent, cycle 10 days): 40% | Relative remission rate (%) (Example 270, Oxaliplatin intraperitoneal injection 25 mg/kg single, compound intraperitoneal injection 100 mg/kg single, 48 h before chemotherapeutic agent, cycle 10 days): 0% | Relative remission rate (%) (Example 275, Oxaliplatin intravenous injection 25 mg/kg single, compound intravenous injection 150 mg/kg single, 0.5 h before chemotherapeutic agent, cycle 7 days): 30% | Relative remission rate (%) (Example 276, Oxaliplatin intravenous injection 25 mg/kg single, compound intravenous injection 150 mg/kg single, 4 h before chemotherapeutic agent, cycle 7 days): 50% | Relative remission rate (%) (Example 277, Oxaliplatin intravenous injection 25 mg/kg single, compound intravenous injection 150 mg/kg single, 8 h before chemotherapeutic agent, cycle 7 days): 50% | Relative remission rate (%) (Example 278, Oxaliplatin intravenous injection 25 mg/kg single, compound intravenous injection 150 mg/kg single, 12 h before chemotherapeutic agent, cycle 7 days): 40% | Relative remission rate (%) (Example 279, Oxaliplatin intravenous injection 25 mg/kg single, compound intravenous injection 150 mg/kg single, 16 h before chemotherapeutic agent, cycle 7 days): 40% | Relative remission rate (%) (Example 280, Oxaliplatin intravenous injection 25 mg/kg single, compound intravenous injection 150 mg/kg single, 20 h before chemotherapeutic agent, cycle 7 days): 60% | Relative remission rate (%) (Example 281, Oxaliplatin intravenous injection 25 mg/kg single, compound intravenous injection 150 mg/kg single, 24 h before chemotherapeutic agent, cycle 7 days): 60% | Relative remission rate (%) (Example 282, Oxaliplatin intravenous injection 25 mg/kg single, compound intravenous injection 150 mg/kg single, 48 h before chemotherapeutic agent, cycle 7 days): 0% | Relative remission rate (%) (Example 286, Irinotecan (CPT-11) intraperitoneal injection 260 mg/kg single, compound intravenous injection 150 mg/kg single, 0.5 h before chemotherapeutic agent, cycle 8 days): 40%
